Values from PubChem BioAssay AID1259308 (NCATS, 2017)

- Test: 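Genes whose loss raises luciferase production in HEK293 cells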 (primary screen)
- System: human HEK293 embryonic kidney cells stably expressing firefly luciferase (HEK-CMV-Luc2-Hygro)
- Reagent: single siRNA against human genes, 0.8 pmol siRNA per well
- Timing: 72 h
- Measured: 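Reporter luminescence and viable-cell signal on separate replicate plates, given as percent of non-targeting control and median/MAD z-scores, plus per-cell luciferase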
- Direction: total luciferase, z-score: higher = more reporter protein produced
- Hit rule: 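Active when the median/MAD z-score for overall luciferase is greater than 3; a gene was taken forward for validation with new siRNAs if at least two of its three siRNAs passed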
- Meaning of the calls: active = raised luciferase; inactive = no rise
The whole screen tested about 59,000 reagents; below is a part drawn at random. Over the whole deposit, about 1,510 (2.6%) are marked active. 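Calls use total luciferase alone and ignore viability, so some active siRNAs may act by altering cell number.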 A number with no mark means an inactive call. The numbers tell different reagents against one gene apart. Not all columns of the deposit are shown.

{"gene knocked down": "LINC00900", "siRNA no.": 1, "total luciferase, z-score": 0.638}
{"gene knocked down": "LINC00900", "siRNA no.": 2, "total luciferase, z-score": 1.57}
{"gene knocked down": "LINC00900", "siRNA no.": 3, "total luciferase, z-score": -0.287}
{"gene knocked down": "OR3A1", "siRNA no.": 1, "total luciferase, z-score": 0.783}
{"gene knocked down": "OR3A1", "siRNA no.": 2, "total luciferase, z-score": 0.607}
{"gene knocked down": "OR3A1", "siRNA no.": 3, "total luciferase, z-score": 1.75}
{"gene knocked down": "STX5", "siRNA no.": 1, "total luciferase, z-score": -1.2}
{"gene knocked down": "STX5", "siRNA no.": 2, "total luciferase, z-score": 0.0745}
{"gene knocked down": "STX5", "siRNA no.": 3, "total luciferase, z-score": 0.954}
{"gene knocked down": "SNRPB", "siRNA no.": 1, "total luciferase, z-score": "5.88 (active)"}
{"gene knocked down": "SNRPB", "siRNA no.": 2, "total luciferase, z-score": "6.53 (active)"}
{"gene knocked down": "SNRPB", "siRNA no.": 3, "total luciferase, z-score": "3.84 (active)"}
{"gene knocked down": "DNAJC14", "siRNA no.": 1, "total luciferase, z-score": 1.6}
{"gene knocked down": "DNAJC14", "siRNA no.": 2, "total luciferase, z-score": 0.198}
{"gene knocked down": "DNAJC14", "siRNA no.": 3, "total luciferase, z-score": -0.616}
{"gene knocked down": "NCR2", "siRNA no.": 1, "total luciferase, z-score": 0.779}
{"gene knocked down": "NCR2", "siRNA no.": 2, "total luciferase, z-score": -0.935}
{"gene knocked down": "NCR2", "siRNA no.": 3, "total luciferase, z-score": 0.798}
{"gene knocked down": "KANK2", "siRNA no.": 1, "total luciferase, z-score": -0.269}
{"gene knocked down": "KANK2", "siRNA no.": 2, "total luciferase, z-score": -0.0706}
{"gene knocked down": "KANK2", "siRNA no.": 3, "total luciferase, z-score": 1.63}

Not a retest: 2 of the entries above.
{"gene knocked down": "OR3A1", "siRNA no.": 1, "total luciferase, z-score": 0.783}
{"gene knocked down": "OR3A1", "siRNA no.": 2, "total luciferase, z-score": 0.607}
